Experimental data from US20130109762A1.

Key:
[1] = target: T1, eADF4(C16) spider silk particles; experiment: depletion assay, lysozyme with silk particles; supernatant by Micro BCA
T1 sequence: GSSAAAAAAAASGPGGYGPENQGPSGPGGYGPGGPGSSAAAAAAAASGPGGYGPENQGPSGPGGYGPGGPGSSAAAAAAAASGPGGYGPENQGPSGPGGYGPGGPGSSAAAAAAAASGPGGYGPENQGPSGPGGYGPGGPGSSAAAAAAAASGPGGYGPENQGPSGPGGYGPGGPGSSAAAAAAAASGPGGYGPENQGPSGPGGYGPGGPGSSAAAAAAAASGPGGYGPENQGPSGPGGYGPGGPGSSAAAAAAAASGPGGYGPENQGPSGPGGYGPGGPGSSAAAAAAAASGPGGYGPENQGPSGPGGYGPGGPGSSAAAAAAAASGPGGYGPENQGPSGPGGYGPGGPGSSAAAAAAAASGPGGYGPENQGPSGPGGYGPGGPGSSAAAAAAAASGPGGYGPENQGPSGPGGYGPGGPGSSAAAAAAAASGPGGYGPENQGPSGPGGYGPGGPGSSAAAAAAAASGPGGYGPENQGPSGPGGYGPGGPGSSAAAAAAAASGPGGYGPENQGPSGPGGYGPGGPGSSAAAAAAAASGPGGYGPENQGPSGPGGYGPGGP

[2] = target: T1, eADF4(C16) spider silk particles; experiment: depletion assay at pH 7.0/30 mM, figure legend of FIG. 6A
[3] = target: T1, eADF4(C16) spider silk particles; experiment: incubation of lysozyme with silk particles (0.5 mg/ml, 10 mM phosphate pH 7.0, 30 min), centrifugation, residual protein in supernatant by Micro BCA

Measured: binding

Lysozyme (enzyme)
binds: all assays above

Results are given in words; binding and its absence hold for the method and conditions named. A result given as binding can be weak or reduced; the word gives no strength.
